Results published in publication doi:10.1101/2025.11.10.687516 (bioRxiv, 2025).
No constants are given. Whether binding was seen depends on the method and setting. Some binding calls cover weakened binding; strength is not graded here.

Target: T1, GrxD (E. coli K-12 BW25113 (endogenous in the lysate)) (UniProt P0AC69)
T1 sequence: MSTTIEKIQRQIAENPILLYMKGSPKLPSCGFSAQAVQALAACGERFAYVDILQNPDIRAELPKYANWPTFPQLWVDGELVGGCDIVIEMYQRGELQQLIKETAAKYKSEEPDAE
Test: SEC

B1: BolA (protein, UniProt P0ABE2 1-105)
chain: MMIRERIEEKLRAAFQPVFLEVVDESYRHNVPAGSESHFKVVLVSDRFTGERFLNRHRMIYSTLAEELSTTVHALALHTYTIKEWEGLQDTVFASPPCRGAGSIA
binding: binds
